Laboratory results as given in the supplement of paper PMC10849652.
The other results are listed elsewhere or left out.

Amino acid sequences for entries named in this document (tags omitted). A change or cut given only in a name is not applied to a line headed by its entry.
UniProt Q8N2W9: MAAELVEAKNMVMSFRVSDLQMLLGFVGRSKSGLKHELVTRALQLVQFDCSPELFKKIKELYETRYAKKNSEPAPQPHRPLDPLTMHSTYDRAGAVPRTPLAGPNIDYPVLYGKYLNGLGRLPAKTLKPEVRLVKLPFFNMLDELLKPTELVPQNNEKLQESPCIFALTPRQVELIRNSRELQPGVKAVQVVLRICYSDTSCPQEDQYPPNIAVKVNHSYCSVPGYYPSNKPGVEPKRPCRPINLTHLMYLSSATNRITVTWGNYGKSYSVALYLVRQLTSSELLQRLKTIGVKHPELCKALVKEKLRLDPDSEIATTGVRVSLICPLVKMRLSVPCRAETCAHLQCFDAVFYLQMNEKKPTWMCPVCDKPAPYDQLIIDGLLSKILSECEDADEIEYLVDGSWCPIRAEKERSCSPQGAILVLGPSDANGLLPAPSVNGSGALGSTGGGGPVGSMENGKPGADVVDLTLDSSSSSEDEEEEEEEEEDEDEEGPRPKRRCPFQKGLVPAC
UniProt O60331: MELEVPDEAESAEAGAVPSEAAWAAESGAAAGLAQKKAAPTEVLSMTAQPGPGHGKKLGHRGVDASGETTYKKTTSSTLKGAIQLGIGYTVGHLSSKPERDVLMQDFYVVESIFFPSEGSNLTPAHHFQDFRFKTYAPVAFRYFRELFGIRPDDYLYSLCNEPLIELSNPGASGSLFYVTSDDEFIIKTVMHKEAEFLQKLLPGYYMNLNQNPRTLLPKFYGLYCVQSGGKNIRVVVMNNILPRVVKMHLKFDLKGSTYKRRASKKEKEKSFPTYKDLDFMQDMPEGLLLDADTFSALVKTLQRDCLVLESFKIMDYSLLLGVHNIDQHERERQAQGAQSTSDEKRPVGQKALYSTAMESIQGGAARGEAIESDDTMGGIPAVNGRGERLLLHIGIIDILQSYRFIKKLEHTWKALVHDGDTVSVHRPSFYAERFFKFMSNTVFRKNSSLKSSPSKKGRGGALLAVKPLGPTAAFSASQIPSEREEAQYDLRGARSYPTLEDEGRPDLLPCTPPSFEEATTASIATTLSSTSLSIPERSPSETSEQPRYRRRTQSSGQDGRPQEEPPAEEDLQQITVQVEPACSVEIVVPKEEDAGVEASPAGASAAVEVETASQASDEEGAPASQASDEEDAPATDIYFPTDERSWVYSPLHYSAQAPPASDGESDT
UniProt O94880: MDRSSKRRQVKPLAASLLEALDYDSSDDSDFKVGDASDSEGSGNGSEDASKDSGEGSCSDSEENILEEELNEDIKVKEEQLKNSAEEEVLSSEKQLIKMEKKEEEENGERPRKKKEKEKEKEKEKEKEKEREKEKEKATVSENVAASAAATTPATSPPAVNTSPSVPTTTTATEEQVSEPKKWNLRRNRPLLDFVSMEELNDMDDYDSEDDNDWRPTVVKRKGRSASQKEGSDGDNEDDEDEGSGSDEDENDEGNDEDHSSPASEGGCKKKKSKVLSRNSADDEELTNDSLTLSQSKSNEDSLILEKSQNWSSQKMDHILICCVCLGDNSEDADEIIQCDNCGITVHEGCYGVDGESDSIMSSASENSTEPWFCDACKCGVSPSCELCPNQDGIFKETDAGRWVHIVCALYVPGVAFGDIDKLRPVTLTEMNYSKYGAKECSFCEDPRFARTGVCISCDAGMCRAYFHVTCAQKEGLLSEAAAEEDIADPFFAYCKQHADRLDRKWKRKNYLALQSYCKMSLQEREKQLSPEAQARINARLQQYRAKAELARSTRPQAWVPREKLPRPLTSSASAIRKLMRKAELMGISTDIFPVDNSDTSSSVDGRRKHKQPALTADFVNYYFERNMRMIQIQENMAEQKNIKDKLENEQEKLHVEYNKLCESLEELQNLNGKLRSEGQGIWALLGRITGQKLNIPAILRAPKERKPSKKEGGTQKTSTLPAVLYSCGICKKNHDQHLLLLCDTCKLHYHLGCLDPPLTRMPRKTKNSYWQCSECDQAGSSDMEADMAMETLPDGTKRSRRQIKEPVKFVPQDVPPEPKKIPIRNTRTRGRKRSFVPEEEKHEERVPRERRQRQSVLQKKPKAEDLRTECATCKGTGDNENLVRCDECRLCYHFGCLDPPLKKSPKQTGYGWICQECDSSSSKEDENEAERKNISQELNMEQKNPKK
UniProt Q14442: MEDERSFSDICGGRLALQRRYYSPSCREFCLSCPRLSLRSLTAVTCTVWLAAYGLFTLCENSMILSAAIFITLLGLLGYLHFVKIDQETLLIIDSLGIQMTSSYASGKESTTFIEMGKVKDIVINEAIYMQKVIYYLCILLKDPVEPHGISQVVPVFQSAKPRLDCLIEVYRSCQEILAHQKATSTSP
UniProt Q9Y2B2: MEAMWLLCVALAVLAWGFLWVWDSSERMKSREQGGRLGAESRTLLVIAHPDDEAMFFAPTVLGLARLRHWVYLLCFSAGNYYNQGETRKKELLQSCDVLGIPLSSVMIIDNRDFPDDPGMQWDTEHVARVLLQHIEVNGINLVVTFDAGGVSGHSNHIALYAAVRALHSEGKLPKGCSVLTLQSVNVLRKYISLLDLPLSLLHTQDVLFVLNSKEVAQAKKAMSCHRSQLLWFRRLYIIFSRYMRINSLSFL
UniProt Q8TBF5: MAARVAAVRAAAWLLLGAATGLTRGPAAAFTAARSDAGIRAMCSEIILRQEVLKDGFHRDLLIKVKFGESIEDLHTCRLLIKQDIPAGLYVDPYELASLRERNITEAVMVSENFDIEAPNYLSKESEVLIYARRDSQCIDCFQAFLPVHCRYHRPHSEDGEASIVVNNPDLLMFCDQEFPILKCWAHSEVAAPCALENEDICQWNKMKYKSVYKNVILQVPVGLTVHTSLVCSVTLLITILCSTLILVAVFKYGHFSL
UniProt Q7Z7B1: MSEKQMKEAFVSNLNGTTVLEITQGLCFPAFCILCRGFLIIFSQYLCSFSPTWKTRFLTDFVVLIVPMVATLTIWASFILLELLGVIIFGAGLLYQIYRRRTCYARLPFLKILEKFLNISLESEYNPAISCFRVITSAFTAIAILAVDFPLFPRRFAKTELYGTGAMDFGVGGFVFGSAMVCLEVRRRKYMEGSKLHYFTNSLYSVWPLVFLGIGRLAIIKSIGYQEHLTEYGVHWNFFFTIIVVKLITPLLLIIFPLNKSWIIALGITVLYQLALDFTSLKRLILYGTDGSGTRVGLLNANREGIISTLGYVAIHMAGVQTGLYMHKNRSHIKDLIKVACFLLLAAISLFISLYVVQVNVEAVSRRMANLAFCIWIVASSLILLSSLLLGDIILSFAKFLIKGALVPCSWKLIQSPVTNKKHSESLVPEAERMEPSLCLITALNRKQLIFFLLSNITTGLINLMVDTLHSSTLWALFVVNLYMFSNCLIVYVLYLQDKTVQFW
PIGBOS1, A0A0B4J2F0, UniProt A0A0B4J2F0, whole entry, looked up: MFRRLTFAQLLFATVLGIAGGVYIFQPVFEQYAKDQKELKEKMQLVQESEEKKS
UniProt Q7Z412: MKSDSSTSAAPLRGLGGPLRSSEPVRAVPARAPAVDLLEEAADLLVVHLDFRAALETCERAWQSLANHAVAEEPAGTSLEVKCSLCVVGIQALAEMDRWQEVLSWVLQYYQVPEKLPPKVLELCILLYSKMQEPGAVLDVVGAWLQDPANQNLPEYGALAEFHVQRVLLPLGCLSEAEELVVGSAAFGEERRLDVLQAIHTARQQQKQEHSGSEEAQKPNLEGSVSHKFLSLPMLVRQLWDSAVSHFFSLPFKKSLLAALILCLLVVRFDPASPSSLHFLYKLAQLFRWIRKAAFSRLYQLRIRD
UniProt Q9BZM1: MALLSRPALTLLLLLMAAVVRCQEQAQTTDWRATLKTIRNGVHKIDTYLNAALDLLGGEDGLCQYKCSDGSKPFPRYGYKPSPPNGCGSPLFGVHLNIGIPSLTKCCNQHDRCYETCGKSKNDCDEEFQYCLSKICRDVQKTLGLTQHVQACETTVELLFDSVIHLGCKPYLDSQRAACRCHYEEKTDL
UniProt Q86UU1: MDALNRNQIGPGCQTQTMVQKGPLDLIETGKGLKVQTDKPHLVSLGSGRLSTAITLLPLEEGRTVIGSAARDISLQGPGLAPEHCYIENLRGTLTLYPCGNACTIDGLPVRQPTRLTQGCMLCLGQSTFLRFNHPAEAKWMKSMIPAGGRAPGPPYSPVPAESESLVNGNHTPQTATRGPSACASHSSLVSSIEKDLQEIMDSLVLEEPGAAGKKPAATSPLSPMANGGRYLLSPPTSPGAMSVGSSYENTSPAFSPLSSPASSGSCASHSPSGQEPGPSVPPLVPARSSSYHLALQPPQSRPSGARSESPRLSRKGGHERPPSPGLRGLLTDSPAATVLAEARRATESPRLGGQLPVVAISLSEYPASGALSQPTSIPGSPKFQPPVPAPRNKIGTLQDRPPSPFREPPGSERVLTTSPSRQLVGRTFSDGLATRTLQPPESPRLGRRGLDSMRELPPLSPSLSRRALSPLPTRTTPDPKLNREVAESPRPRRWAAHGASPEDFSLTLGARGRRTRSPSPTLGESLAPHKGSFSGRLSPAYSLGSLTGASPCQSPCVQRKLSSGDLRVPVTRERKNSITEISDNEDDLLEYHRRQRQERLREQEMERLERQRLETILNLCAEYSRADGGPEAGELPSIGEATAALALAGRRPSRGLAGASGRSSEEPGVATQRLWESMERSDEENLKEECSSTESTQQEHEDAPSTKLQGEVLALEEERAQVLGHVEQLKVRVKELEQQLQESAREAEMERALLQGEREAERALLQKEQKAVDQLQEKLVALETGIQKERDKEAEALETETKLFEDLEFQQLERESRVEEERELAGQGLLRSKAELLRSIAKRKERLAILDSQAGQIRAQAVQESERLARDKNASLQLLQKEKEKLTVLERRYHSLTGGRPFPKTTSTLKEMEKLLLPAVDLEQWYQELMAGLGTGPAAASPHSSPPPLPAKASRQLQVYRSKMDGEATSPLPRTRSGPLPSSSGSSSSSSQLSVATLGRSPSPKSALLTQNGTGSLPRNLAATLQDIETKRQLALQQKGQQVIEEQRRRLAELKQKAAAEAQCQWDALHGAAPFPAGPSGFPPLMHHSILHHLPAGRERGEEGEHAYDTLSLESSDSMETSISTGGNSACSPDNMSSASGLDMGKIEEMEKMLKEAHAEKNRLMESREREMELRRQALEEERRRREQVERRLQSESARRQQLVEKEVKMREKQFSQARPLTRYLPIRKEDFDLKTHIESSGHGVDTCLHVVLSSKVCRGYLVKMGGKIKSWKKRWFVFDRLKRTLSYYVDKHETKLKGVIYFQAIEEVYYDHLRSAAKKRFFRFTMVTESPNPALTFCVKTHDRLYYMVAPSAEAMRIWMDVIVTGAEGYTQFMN
UniProt P60673: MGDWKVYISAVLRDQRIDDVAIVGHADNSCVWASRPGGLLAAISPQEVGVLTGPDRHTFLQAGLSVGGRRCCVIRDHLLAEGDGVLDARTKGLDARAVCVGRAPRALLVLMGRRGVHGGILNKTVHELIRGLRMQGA
UniProt Q8IUZ5: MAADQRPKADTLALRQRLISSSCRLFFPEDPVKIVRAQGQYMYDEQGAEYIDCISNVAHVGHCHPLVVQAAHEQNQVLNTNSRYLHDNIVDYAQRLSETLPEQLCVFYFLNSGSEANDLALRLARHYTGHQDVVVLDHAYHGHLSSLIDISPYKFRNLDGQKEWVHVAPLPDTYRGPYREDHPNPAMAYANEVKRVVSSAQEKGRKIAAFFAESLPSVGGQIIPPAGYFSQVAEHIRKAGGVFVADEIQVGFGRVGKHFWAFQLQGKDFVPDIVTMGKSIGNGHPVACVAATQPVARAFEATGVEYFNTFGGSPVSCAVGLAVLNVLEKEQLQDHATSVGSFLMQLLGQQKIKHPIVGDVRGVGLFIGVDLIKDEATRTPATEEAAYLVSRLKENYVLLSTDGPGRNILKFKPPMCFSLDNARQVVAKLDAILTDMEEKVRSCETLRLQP
UniProt Q8TCG2: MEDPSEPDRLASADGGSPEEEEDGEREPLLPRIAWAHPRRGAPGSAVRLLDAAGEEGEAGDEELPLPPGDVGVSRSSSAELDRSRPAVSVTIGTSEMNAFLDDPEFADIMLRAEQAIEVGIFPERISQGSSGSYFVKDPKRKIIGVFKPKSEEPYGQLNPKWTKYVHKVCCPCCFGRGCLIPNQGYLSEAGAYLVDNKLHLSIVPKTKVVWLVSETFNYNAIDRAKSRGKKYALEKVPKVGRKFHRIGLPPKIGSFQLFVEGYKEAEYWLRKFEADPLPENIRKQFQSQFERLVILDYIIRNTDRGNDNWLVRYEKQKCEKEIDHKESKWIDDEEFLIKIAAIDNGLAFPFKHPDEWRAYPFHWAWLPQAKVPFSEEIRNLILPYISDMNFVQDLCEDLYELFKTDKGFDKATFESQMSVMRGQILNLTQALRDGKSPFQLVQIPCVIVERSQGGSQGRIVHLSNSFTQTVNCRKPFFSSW
UniProt Q8TCD6: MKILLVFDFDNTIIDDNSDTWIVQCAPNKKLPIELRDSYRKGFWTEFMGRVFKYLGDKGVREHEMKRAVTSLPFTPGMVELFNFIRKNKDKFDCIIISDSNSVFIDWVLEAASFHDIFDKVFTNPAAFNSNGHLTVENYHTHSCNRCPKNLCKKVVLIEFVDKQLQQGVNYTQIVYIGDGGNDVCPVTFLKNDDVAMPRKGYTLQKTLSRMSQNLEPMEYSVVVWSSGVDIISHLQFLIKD

Compound: Cc1cc(Nc2cc(CN3CCOCC3)c3nc(C)c(Cc4ccc(Cl)cc4F)n3n2)n[nH]1 [gandotinib]
Assay: log2 fold change, soluble protein after heating vs DMSO (PISA); higher = thermal stabilisation; K562 cells, 10 uM, 30 min; active = over 0.2 and 3.5 SD of the protein, either way, in both replicates (recomputed)
In short: (§1)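 Soluble protein was defined as the supernatant after 21,000xg for 90 min. It came from K562 cells at 2×10^6 cells/mL given 10 μM compound for 30 min, heated in aliquots for 3 min across 48°C-58°C, pooled, and extracted in PBS with 0.5% NP-40 at 4°C, and was quantified by TMTpro 16plex LC-MS/MS with equalised channel sums. Thermal stability against control samples, from duplicates, is reported as log2 fold change.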

Row | Target | log2 fold change
1 | PIAS4 (UniProt Q8N2W9) | inactive: -0.013
2 | PIP5K1C isoform 3 (UniProt O60331) | inactive: 0.056
3 | PHF14 (UniProt O94880) | inactive: -0.027
4 | PHETA1 isoform 4 (UniProt Q8N4B1) | inactive: 0.021
5 | PIGH (UniProt Q14442) | inactive: 0.036
6 | PGD (UniProt K7EM49) | inactive: -0.067
7 | PIGL (UniProt Q9Y2B2) | inactive: -0.04
8 | PIGX isoform 2 (UniProt Q8TBF5) | inactive: 0.014
9 | PIGW (UniProt Q7Z7B1) | inactive: -0.014
10 | PIGBOS1, A0A0B4J2F0 | inactive: 0.02
11 | PI4KB isoform 2 (UniProt Q9UBF8) | inactive: -0.101
12 | PEX26 (UniProt Q7Z412) | inactive: -0.065
13 | PKIB isoform 2 (UniProt Q9C010) | inactive: 0.164
14 | PLA2G12A (UniProt Q9BZM1) | inactive: -0.103
15 | PHLDB1 isoform 2 (UniProt Q86UU1) | inactive: -0.281
16 | PIM1 isoform 2 (UniProt P11309) | inactive: -0.084
17 | PFKFB1 (UniProt P16118) | inactive: -0.304
18 | PFKM (UniProt F8VTQ3) | inactive: -0.688
19 | PIMREG (UniProt Q9BSJ6) | inactive: -0.11
20 | PFN3 (UniProt P60673) | inactive: -0.363
21 | PLEKHA5 isoform 6 (UniProt Q9HAU0) | inactive: 0.05
22 | PHYKPL (UniProt Q8IUZ5) | inactive: -0.096
23 | PI4K2B (UniProt Q8TCG2) | inactive: -0.045

Compound: Cc1cc(Nc2cc(N3CCN(C)CC3)nc(Sc3ccc(NC(=O)C4CC4)cc3)n2)n[nH]1 [tozasertib]
Assay: as above
In short: as §1

Row | Target | log2 fold change
24 | PIP5K1C isoform 3 (UniProt O60331) | inactive: 0.068
25 | PHF14 (UniProt O94880) | inactive: 0.123
26 | PIGL (UniProt Q9Y2B2) | inactive: -0.066
27 | PIGX isoform 2 (UniProt Q8TBF5) | inactive: -0.019
28 | PIGW (UniProt Q7Z7B1) | inactive: -0.112
29 | PIGBOS1, A0A0B4J2F0 | inactive: -0.077
30 | PHOSPHO2 (UniProt Q8TCD6) | inactive: 0.371
31 | PEX26 (UniProt Q7Z412) | inactive: 0.08
32 | PLA2G12A (UniProt Q9BZM1) | inactive: 0.024
33 | PHLPP1 (UniProt O60346) | inactive: -0.092
34 | PFN3 (UniProt P60673) | inactive: -0.495
35 | PIBF1 (UniProt Q8WXW3) | inactive: 0.198
36 | PLEKHA5 isoform 6 (UniProt Q9HAU0) | inactive: 0.154
37 | PIGO (UniProt Q8TEQ8) | inactive: 0.013
38 | PHYKPL (UniProt Q8IUZ5) | inactive: 0.008

Compound: Cc1cc(SCc2sc(-c3ccc(C(F)(F)F)cc3)nc2C)ccc1OCC(=O)O
Assay: as above
In short: as §1

Row | Target | log2 fold change
39 | PIAS4 (UniProt Q8N2W9) | inactive: 0.021
40 | PLEKHB2 isoform 2 (UniProt Q96CS7) | inactive: -0.05
41 | PIP5K1C isoform 3 (UniProt O60331) | inactive: 0.11
42 | PHF14 (UniProt O94880) | inactive: -0.116
43 | PHETA1 isoform 4 (UniProt Q8N4B1) | inactive: 0.019
44 | PIGH (UniProt Q14442) | inactive: 0.04
45 | PIGL (UniProt Q9Y2B2) | inactive: -0.031
46 | PIGX isoform 2 (UniProt Q8TBF5) | inactive: -0.101
47 | PKNOX1 (UniProt P55347) | inactive: 0.036
48 | PIGW (UniProt Q7Z7B1) | inactive: 0.062
49 | PIGBOS1, A0A0B4J2F0 | inactive: -0.298
50 | PHOSPHO2 (UniProt Q8TCD6) | inactive: 0.089
51 | PEX26 (UniProt Q7Z412) | inactive: 0.037
52 | PEX5 isoform 4 (UniProt P50542) | inactive: -0.047
53 | PLA2G12A (UniProt Q9BZM1) | inactive: -0.002
54 | PHLDB1 isoform 2 (UniProt Q86UU1) | inactive: 0.108
55 | PHLPP1 (UniProt O60346) | inactive: 0
56 | PFN3 (UniProt P60673) | inactive: -0.086
57 | PIBF1 (UniProt Q8WXW3) | inactive: 0.293
58 | PGM1 isoform 2 (UniProt P36871) | inactive: -0.142
59 | PHYKPL (UniProt Q8IUZ5) | inactive: 0.419
60 | PI4K2B (UniProt Q8TCG2) | inactive: -0.016

Compound: Cc1ccc(-n2nc(C(C)(C)C)cc2NC(=O)Nc2ccc(OCCN3CCOCC3)c3ccccc23)cc1 [doramapimod]
Assay: as above
In short: as §1

Row | Target | log2 fold change
61 | PIAS4 (UniProt Q8N2W9) | inactive: 0.061
62 | PIGH (UniProt Q14442) | inactive: -0.062
63 | PGD (UniProt K7EM49) | inactive: -0.009
64 | PIGL (UniProt Q9Y2B2) | inactive: 0
65 | PHOSPHO2 (UniProt Q8TCD6) | inactive: 0.044
66 | PEX26 (UniProt Q7Z412) | inactive: 0.219
67 | PLEK (UniProt P08567) | inactive: 0.152
68 | PHLDB1 isoform 2 (UniProt Q86UU1) | inactive: 0.032
69 | PFKM (UniProt F8VTQ3) | inactive: 0.071
70 | PIGO (UniProt Q8TEQ8) | inactive: 0.266
71 | PIAS1 isoform 2 (UniProt O75925) | inactive: -0.076
72 | PI4K2B (UniProt Q8TCG2) | inactive: 0.01
